Data published in PubChem BioAssay AID264 (DTP/NCI, 2004).
The list is a part of this screen's results and no random one: it gathers tests that were run many times, whatever their T/C, doses with no T/C, and many T/C values between a quarter and a half above the control. Further doses and runs are listed elsewhere. T/C gives the treated animals as a percentage of the vehicle group. Schedule codes are those of the source, read here as Q, the interval in days (D) or hours (H), X, the number of doses. Some T/C values are followed by the survivors on the day toxicity was checked, most often the fifth; where none is given, no animal had died by that day. Some T/C values are negative: the treated tumours shrank. Some entries were tested several times; their values stand side by side, smallest first. Some entries give survivors of the animals treated and no T/C: the source files T/C as zero there, which appears to mark a toxic dose or a test without result, not a measured value. Survivors were counted at the toxicity check, usually on the fifth day, unless a day is given; later deaths do not show.

Tested on: nude mice, LX-1 lung xenograft intrarenal, tumor weight T/C
Test: NCI In Vivo Anticancer Drug Screen. Data for tumor model Human Lung LX-1 Xenograft (intrarenal inoculation) in NU/NU Swiss (nude) mice
Conditions: T/C endpoint: mean tumor weight change, higher T/C = larger tumour; for T/C: evaluated on day 11
Outline: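 Tumor-bearing mice receive test compound or vehicle; tumor size is then measured in each group. The treated value is divided by the vehicle value to give T/C.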

[1] = dose: 800.0 mg/kg/injection, schedule: Q04DX003 (sc), vehicle: saline
[2] = dose: 20.0 mg/kg/injection, schedule: Q04DX003 (sc), vehicle: saline
[3] = dose: 25.0 mg/kg/injection, schedule: Q01DX010 (sc), vehicle: Klucel (hydroxypropylcellulose) (HPC)
[4] = dose: 400.0 mg/kg/injection, schedule: Q01DX010 (sc), vehicle: saline with Tween-80

O=C(/C=C(\Cl)C(=O)NO)NO
T/C (dose: 200.0 mg/kg/injection, schedule: Q04DX003 (sc), vehicle: saline): 129 % of control | survivor count (dose: 400.0 mg/kg/injection, schedule: Q04DX003 (sc), vehicle: saline): 0 of 6 on day 11 | survivor count [1]: 0 of 6 on day 11

CCCCOCN(COCCCC)C(C)Cc1ccccc1 (configuration not stated)
T/C (dose: 400.0 mg/kg/injection, schedule: Q04DX003 (sc), vehicle: saline with Tween-80): 147 % of control

C1OC1C1CO1 (configuration not stated)
survivor count (dose: 100.0 mg/kg/injection, schedule: Q01DX010 (sc), vehicle: saline): 0 of 3 on day 11

O=NN(CCCl)C(=O)Oc1ccc(OC(=O)N(CCCl)N=O)cc1
T/C (dose: 2400.0 mg/kg/injection, schedule: Q04DX003 (sc), vehicle: Klucel (hydroxypropylcellulose) (HPC)): 145 % of control

O=NN(CCCl)C(=O)NC1[C@H](O)CCC[C@@H]1O (some centres not stated)
T/C (dose: 10.0 mg/kg/injection, schedule: Q04DX003 (sc), vehicle: saline): -40, 2, 5, 12 % of control [5 of 6 alive on day 11] | T/C [2]: -88, -85 [4 of 6 alive on day 11], -38 % of control | survivor count [2]: 1 of 4 on day 11 | survivor count (dose: 40.0 mg/kg/injection, schedule: Q04DX003 (sc), vehicle: saline): 0 of 6 on day 11 | survivor count (dose: 80.0 mg/kg/injection, schedule: Q04DX003 (sc), vehicle: saline): 0 of 6 on day 11

CCOC(=O)C1=C(C#N)C2(CCC(OCc3ccccc3)CC2)C(=O)O1 (configuration not stated)
T/C (dose: 2400.0 mg/kg/injection, schedule: Q04DX003 (sc), vehicle: suspension in saline): 131 % of control

O=NN(CCCl)C(=O)NCCCl
survivor count (dose: 32.0 mg/kg/injection, schedule: Q01DX010 (sc), vehicle: saline): 0 of 3 on day 11 | survivor count (dose: 106.6 mg/kg/injection, schedule: Q04DX003 (sc), vehicle: saline): 0 of 3 on day 11

NC(=O)c1ncn(C2OC(CO)C(O)C2O)n1 (configuration not stated)
survivor count (dose: 2400.0 mg/kg/injection, schedule: Q04DX003 (sc), vehicle: saline): 0 of 6 on day 11

CC1(C)COCN1COCCOCN1COCC1(C)C
T/C (dose: 100.0 mg/kg/injection, schedule: Q04DX003 (sc), vehicle: saline): 141 % of control | survivor count [1]: 3 of 6 on day 11

O=C(CCCN1CCC(O)(c2cccc(C(F)(F)F)c2)CC1)c1ccc(F)cc1
T/C [3]: 126 % of control [2 of 3 alive on day 11] | survivor count (dose: 100.0 mg/kg/injection, schedule: Q01DX010 (sc), vehicle: Klucel (hydroxypropylcellulose) (HPC)): 1 of 3 on day 11 | survivor count (dose: 200.0 mg/kg/injection, schedule: Q01DX010 (sc), vehicle: Klucel (hydroxypropylcellulose) (HPC)): 0 of 3 on day 11

Nc1cc2[nH]cnc2c(=O)[nH]1
survivor count (dose: 400.0 mg/kg/injection, schedule: Q01DX010 (sc), vehicle: saline): 0 of 6 on day 11

CC1CCC(NC(=O)N(CCCl)N=O)CC1 (configuration not stated)
survivor count [3]: 0 of 3 on day 11 | survivor count (dose: 50.0 mg/kg/injection, schedule: Q01DX010 (sc), vehicle: Klucel (hydroxypropylcellulose) (HPC)): 0 of 2 on day 11

CN1CCN(Cc2nc3cccc4c3c([n+]2[O-])-c2ccccc2-4)CC1
survivor count (dose: 50.0 mg/kg/injection, schedule: Q01DX010 (sc), vehicle: saline with Tween-80): 1 of 3 on day 11 | survivor count (dose: 200.0 mg/kg/injection, schedule: Q01DX010 (sc), vehicle: saline with Tween-80): 1 of 3 on day 11 | survivor count [4]: 0 of 2 on day 11

O=C1NC(c2ccccc2)N=C2Oc3ccccc3C=C12 (configuration not stated)
survivor count [4]: 0 of 3 on day 11
